From publication PMC4263763, “Crystal Structure of Calcium Binding Protein-5 from Entamoeba histolytica and Its Involvement in Initiation of Phagocytosis of Human Erythrocytes” (PLoS Pathogens, 2014)

What was measured:
[1] = target: T1, Second IQ motif peptide of heavy chain myosin (myosin II) (Entamoeba histolytica); test: SPR; both purified
T1 sequence (peptide): LQACARAFAARKHFS

[2] = target: T2, IQ motif peptide of myosin 1B (native) (Entamoeba histolytica); test: SPR; both purified
T2 sequence (peptide): IQKAWKGYRNRKR

Row | Substance | binding [1] | binding [2]
1 | Entamoeba histolytica calcium binding protein-5 (EhCaBP5), recombinant | no binding (tested: up to 2000 nM) | –
2 | EhCaBP3 (Entamoeba histolytica) | – | no binding (tested: 750 nM)

No constants are given. Whether binding was seen depends on the method and setting. Tags and fused reporters may be left off the sequences shown.
